Test system: 4T1 cells
Details: day 39

G-Y-Y-Y-P-S-D-P-N-T-F-Y-A-P-P-Y-S-A (GYYYPSDPNTFYAPPYSA; tapeworm) [GK-1]
slope of correlation between spleen weight and primary tumor weight: lower than 0.57 | weight of the spleen with respect to tumor-free mice: increased significantly with respect to tumor-free mice

From patent US11020449B2, “Use of the GK-1 peptide as an antitumoral and/or antimetastatic agent” (UNIVERSIDAD NACIONAL AUTÓNOMA DE MÉXICO, priority 2016, dated 2021)
